Measurements: article doi:10.1101/2025.09.05.674414
No constants are given. Whether binding was seen depends on the method and setting. In cells and extracts the contact can be indirect. A yes stands for co-enrichment or nearness to the bait. Other partners may have been found.

The binders below were run against LINE-1 encoded ORF1p (mouse) (mouse (endogenous in MN9D)) (assay: affinity purification with mass spectrometry).

Row | Binder | binding
1 | MLF2 (mouse) (protein, UniProt Q99KX1 1-247) MFRFMRDVEPEDPMFLMDPFAIHRQHMSRMLSGGFGYSPFLSITDGNMPATRPASRRMQAGAVSPFGMLGMSGGFMDMFGMMNDMIGNMEHMAAGGNCQTFSSSTVISYSNTGDGAPKVYQETSEMRSAPGGIRETRRTVRDSDSGLEQMSIGHHIRDRAHILQRSRNHRTGDQEERQDYINLDESEAAAFDDEWRRETSRYRQQRPLEFRRHEASVGGGRRAEGPPRLAIQGPEDSPSRQSRRYDW | binds
2 | ATXN2 (mouse) (protein, UniProt O70305 1-1285) MRSSTAAVQRPAAGDPEPRRPAGWAARRSLPRTARRGGRGGAVAYPSAGPPPRGPGAPPRGPRSPPCASDCFGSNGHGASRPGSRRLLGVCGPPRPFVVVLLALAPAATPARACPPGVRASPPRSGVSSSARPAPGCPRPACEPVYGPLTMSLKPQPQPPAPATGRKPGGGLLSSPGAAPASAAVTSASVVPAPAAPVASSSAAAGGGRPGLGRGRNSSKGLPQPTISFDGIYANVRMVHILTSVVGSKCEVQVKNGGIYEGVFKTYSPKCDLVLDAAHEKSTESSSGPKREEIMESVLFKCSDFVVVQFKDTDSSYARRDAFTDSALSAKVNGEHKEKDLEPWDAGELTASEELELENDVSNGWDPNDMFRYNEENYGVVSTYDSSLSSYTVPLERDNSEEFLKREARANQLAEEIESSAQYKARVALENDDRSEEEKYTAVQRNCSDREGHGPNTRDNKYIPPGQRNREVLSWGSGRQSSPRMGQPGPGSMPSRAASHTSDFNPNAGSDQRVVNGGVPWPSPCPSHSSRPPSRYQSGPNSLPPRAATHTRPPSRPPSRPSRPPSHPSAHGSPAPVSTMPKRMSSEGPPRMSPKAQRHPRNHRVSAGRGSMSSGLEFVSHNPPSEAAAPPVARTSPAGGTWSSVVSGVPRLSPKTHRPRSPRQSSIGNSPSGPVLASPQAGIIPAEAVSMPVPAASPTPASPASNRALTPSIEAKDSRLQDQRQNSPAGSKENVKASETSPSFSKADNKGMSPVVSEHRKQIDDLKKFKNDFRLQPSSTSESMDQLLSKNREGEKSRDLIKDKTEASAKDSFIDSSSSSSNCTSGSSKTNSPSISPSMLSNAEHKRGPEVTSQGVQTSSPACKQEKDDREEKKDTTEQVRKSTLNPNAKEFNPRSFSQPKPSTTPTSPRPQAQPSPSMVGHQQPAPVYTQPVCFAPNMMYPVPVSPGVQPLYPIPMTPMPVNQAKTYRAGKVPNMPQQRQDQHHQSTMMHPASAAGPPIVATPPAYSTQYVAYSPQQFPNQPLVQHVPHYQSQHPHVYSPVIQGNARMMAPPAHAQPGLVSSSAAQFGAHEQTHAMYACPKLPYNKETSPSFYFAISTGSLAQQYAHPNAALHPHTPHPQPSATPTGQQQSQHGGSHPAPSPVQHHQHQAAQALHLASPQQQSAIYHAGLAPTPPSMTPASNTQSPQSSFPAAQQTVFTIHPSHVQPAYTTPPHMAHVPQAHVQSGMVPSHPTAHAPMMLMTTQPPGPKAALAQSALQPIPVSTTAHFPYMTHPSVQAHHQQQL | binds
3 | GPHN (mouse) (protein, UniProt Q8BUV3 1-769) MATEGMILTNHDHQIRVGVLTVSDSCFRNLAEDRSGINLKDLVQDPSLLGGTISAYKIVPDEIEEIKETLIDWCDEKELNLILTTGGTGFAPRDVTPEATKEVIEREAPGMALAMLMGSLNVTPLGMLSRPVCGIRGKTLIINLPGSKKGSQECFQFILPALPHAIDLLRDAIVKVKEVHDELEDLPSPPPPLSPPPTTSPHKQTEDKGVQCEEEEEEKKDSGVASTEDSSSSHITAAALAAKIPDSIISRGVQVLPRDTASLSTTPSESPRAQATSRLSTASCPTPKQIRRPDESKGVASRVGSLKARLPSCSSTYSVSEVQSRCSSKENILRASHSAVDITKVARRHRMSPFPLTSMDKAFITVLEMTPVLGTEIINYRDGMGRVLAQDVYAKDNLPPFPASVKDGYAVRAADGPGDRFIIGESQAGEQPTQTVMPGQVMRVTTGAPIPCGADAVVQVEDTELIRESDDGTEELEVRILVQARPGQDIRPIGHDIKRGECVLAKGTHMGPSEIGLLATVGVTEVEVNKFPVVAVMSTGNELLNPEDDLLPGKIRDSNRSTLLATIQEHGYPTINLGIVGDNPDDLLNALNEGISRADVIITSGGVSMGEKDYLKQVLDIDLHAQIHFGRVFMKPGLPTTFATLDIDGVRKIIFALPGNPVSAVVTCNLFVVPALRKMQGILDPRPTIIKARLSCDVKLDPRPEYHRCILTWHHQEPLPWAQSTGNQMSSRLMSMRSANGLLMLPPKTEQYVELHKGEVVDVMVIGRL | binds

More lines, now with the values ahead:

Row | binding | Binder
4 | binds | RPAP2 (mouse) (protein, UniProt Q8VC34 1-614) MADSAVPCSLGPSTRASSTHRDATGTKQTRALKRGDASKRQAELEAAIQRKVEFERKAVRIVEQLLEENITEEFLKECGMFITPAHYSDVVDERSIIKLCGYPLCQKKLGVIPKQKYRISTKTNKVYDITERKSFCSNFCYRASKFFETQIPKTPVWVREEERPPDFQLLKKGQSGSSGEVVQFFRDAVTAADVDGSGALEAQCDPASSSSWSERASDEEEQGFVSSLLPGNRPKAVDTRPQPHTKSSIMRKKAAQNVDSKEGEQTVSEVTEQLDNCRLDSQEKVATCKRPLKKESTQISSPGPLCDRFNTSAISEHKHGVSQVTLVGISKKSAEHFRSKFAKSNPGSGSASGLVHVRPEVAKANLLRVLSDTLTEWKTEETLKFLYGQNHDSVCLKPSSASEPDEELDEDDISCDPGSCGPALSQAQNTLDATLPFRGSDTAIKPLPSYESLKKETEMLNLRVREFYRGRCVLNEDTTKSQDSKESVLQRDPSFPLIDSSSQNQIRRRIVLEKLSKVLPGLLGPLQITMGDIYTELKNLIQTFRLSNRNIIHKPVEWTLIAVVLLLLLTPILGIQKHSPKNVVFTQFIATLLTELHLKFEDLEKLTMIFRTSC
5 | binds | UBAP2L (mouse) (protein, UniProt Q80X50 1-1107) MMTSVGTNRARGNWEQPQNQNQTQHKQRPQATAEQIRLAQMISDHNDADFEEKVKQLIDITGKNQDECVIALHDCNGDVNRAINVLLEGNPDTHSWEMVGKKKGVSGQKDGGQTESNEEGKENRDRDRDYSRRRGGPPRRGRGASRGREFRGQENGLDGTKSGGPSGRGTDRGRRGRGRGRGSSGRRGGRFSAQGMGTFNPADYAEPANTDDNYGNSSGNTWNNTGHFEPDDGTRLDFIGVEGSNYPRKFETAPGAWRTATEEWGTEDWNEDLSETKIFTASNVSSVPLPAENVTITAGQRIDLAVLLGKTPSSMENDSSNLDPSQAPSLAQPLVFSNSKQNAISQPASGSTFSHHSMVSMLGKGFGDVGEAKGGSTTGSQFLEQFKTAQALAQLAAQHSQSGSTTTSSWDMGSTTQSPSLVQYDLKSANDSTVHSPFTKRQAFTPSSTMMEVFLQEKPPAVATSTAAPPPPSSPLPSKSTSAPQMSPGSSDNQSSSPQPAQQKLKQQKKKTSLTSKIPALAVEMPGSADISGLNLQFGALQFGSEPVLSDYESTPTTSASSSQAPSSLYTSTASESSSTVSSNQSQESGYQSGPIQSTTYTSQNNAQGPLYEQRSTQTRRYPSSISSSPQKDLTQAKNGFSSVQATQLQTTQSVEGATGSAVKSESPSTSSIPSLNETVPAASLLTTANQHSSSLSGLSHTEEIPNTTTTQHSSALSTQQNTLSSSTSSGRTSTSTLLHTSVESEANLHSSSSTFSTTSSTVSAPPPVVSVSSSLNSGSSLGLSLGSNSTVTASTRSSVATTSGKAPPNLPPGVPPLLPNPYIMAPGLLHAYPPQVYGYDDLQMLQTRFPLDYYSIPFPTPTTPLTGRDGSLASNPYSGDLTKFGRGDASSPAPATTLAQPQQNQTQTHHTTQQTFLNPALPPGYSYTSLPYYTGVPGLPSTFQYGPAVFPVAPTSSKQHGVNVSVNASATPFQQPSGYGSHGYNTGVSVTSSNTGVPDISGSVYSKTQQSFEKQGFHSGTPAASFNLPSALGSGGPINPATAAAYPPAPFMHILTPHQQPHSQILHHHLQQDGQTGSGQRSQTSSIPQKPQTNKSAYNSYSWGAN
6 | binds | NUP50 (mouse) (protein, UniProt Q9JIH2 1-466) MAKRVAEKELTDRNWDEEDEVEEMGTFSVASEEVMKNRAVKKAKRRNVGFESDSGGAFKGFKGLVVPSGGGGFSGFGGSGGKPLEGLTNGNSTDNATPFSNVKTAAEPKAAFGSFAVNGPTTLVDKKISSPKCNNSNQPPSSGPASSTACPGNAYHKQLAGLNCSVRDWIVKHVNTNPLCDLTPIFKDYERYLATIEKQLENGGGSSSESQTDRATAGMEPPSLFGSTKLQQESPFSFHGNKAEDTSEKVEFTAEKKSDAAQGATSASFSFGKKIESSALGSLSSGSLTGFSFSAGSSSLFGKDAAQSKAASSLFSAKASESPAGGGSSECRDGEEEENDEPPKVVVTEVKEEDAFYSKKCKLFYKKDNEFKEKGVGTLHLKPTATQKTQLLVRADTNLGNILLNVLIAPNMPCTRTGKNNVLIVCVPNPPLDEKQPTLPATMLIRVKTSEDADELHKILLEKKDA
7 | binds | PRKRA (mouse) (protein, UniProt Q9WTX2 1-313) MSHSRHRAEAPPLQREDSGTFSLGKMITAKPGKTPIQVLHEYGMKTKNIPVYECERSDVQVHVPTFTFRVTVGDITCTGEGTSKKLAKHRAAEAAINILKANASICFAVPDPLMPDPSKQPKNQLNPIGSLQELAIHHGWRLPEYTLSQEGGPAHKREYTTICRLESFMETGKGASKKQAKRNAAEKFLAKFSNISPENHISLTNVVGHSLGCTWHSLRNSPGEKINLLKRSLLSLPNTDYIQLLSEIASEQGFNITYLDIEELSANGQYQCLAELSTSPITVCHGSGISCGNAQSDAAHNALQYLKIIAERK
8 | binds | ZNF281 (mouse) (protein, UniProt Q99LI5 1-893) MKIGSGFLSGGGGPSSSGGSGSGGSSGSASGGSGGGRRAEMEPTFPQSMVMFNHRLPPVTSFTRPAGTAAPPPQCVLSSSTSAAPAAEPPPPPAPDMTFKKEPAASAAAFPSQRTSWGFLQSLVSIKQEKPADPEEQPSHHHHHHHHYGGLFAGAEERSPGLGGGEGGSHGVIQDLSLLHQHAQQQPAQHHRDVLLSSGSRTDEHGNQEPKQDANVKKAKRPKPESQGIKAKRKPSASSKPLVGEGEGAVLSPSQKPHICDHCSAAFRSSYHLRRHVLIHTGERPFQCSQCSMGFIQKYLLQRHEKIHSREKPFGCDQCSMKFIQKYHMERHKRTHSGEKPYKCDTCQQYFSRTDRLLKHRRTCGEAIAKGAASAEPGSSNHNSMGNLAVLSQGNTSSSRRKSKSKSIAIENKEHKTGKTNESQMSNNINMQSYSVEMPTVSTSGSIIGTGIDELQKRVPKLIFKKGSRKNADKSYLNFVSPLPDVVGQKSLSGKPGGSLGIVSNNSVETISLLQSTSGKQGPISSNYDDAMQFSKKRRYLPTASSNSAFSINVGHMVSQQSVIQSAGVSVLDNEAPLSLIDSSALNAEIKSCHDKSGIPDEVLQSILDQYSGKSETQKEDPFNLTEPRVDLHTSGEHSELVQEENLSPGTQTPSNDKTSMLQEYSKYLQQAFEKSTNAGFTLGHGFQFVSLSSPLHNHTLFPEKQIYTTSPLECGFGQSVTSVLPSSLPKPPFGMLFGSQPGLYLSALDATHQQLTPSQELDDLIDSQKNLETSSAFQSSSQKLTSQKEQQKNLESSTSFQIPSQELASQIDPQKDIEPRTTYQIENFAQAFGSQFKSGSRVPMTFITNSNGEVDHRVRTSVSDFSGYTNMMSDVSEPCSTRVKTPTSQSYR
